{"source": "ChEMBL document CHEMBL3352352", "about": "“Structure-Based Drug Design of Novel, Potent, and Selective Azabenzimidazoles (ABI) as ATR Inhibitors” (ACS Med Chem Lett, 2015)", "assay": "Solubility of the compound in PBS buffer at pH 7 by shake flask equilibrium solubility assay"}
{"smiles": "C[C@@H]1COCCN1c1nc(-c2cncc3[nH]ccc23)cc2c1ncn2C", "values": [{"measurement": "solubility thermodynamic", "value": "> 1700", "unit": "µM"}]}
